The test can be described thus: qHTS Assay for Lipid Storage Modulators in Drosophila S3 Cells.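 On cell number change: cells counted by Cell Tracker Red CMTPX staining in the red channel.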 The following applies: BODIPY lipid droplet fluorescence, 18-24 h; for cell number change: measured here: cell count max response, cells fed with added oleic acid. An outline of the steps:
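Laser-scanning cytometry quantifies lipid droplet accumulation (500–530 nm total intensity; droplet/cell object ratio) in oleic acid-fed (400 uM added) Drosophila S3 cells treated with a concentration series. 20 uM Triacsin C defined 100% inhibition.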
Background: In qHTS, concentration-response curves come from the screen itself.

Where [1] appears, read: measured here: lipid fluorescence (Fed channel) AC50, cells fed with added oleic acid.
Setting [2] is: measured here: cell number channel AC50, cells fed with added oleic acid.

Some of the results follow. Further columns of the screen follow, without active or inactive calls. The list favours compounds with an active or inconclusive main result. Words in brackets tell the shape of the fitted curve; partial curves, single points and poor fits give uncertain potencies.

What is called AC50 is the midpoint of the concentration-response curve, whichever way the signal moves.

With `CCOC(=O)c1c(NC(=O)C(C)Sc2cn(C)c3ccccc23)sc2c1CCC2` (stereo not drawn), the cell number change was -1.54%. Further, the AC50 under setting [1] was 10.3 µM [falling, partial curve].

Take `COc1ccc(OC)c(C(=O)N2CCCC(Nc3ccc(F)cc3)C2)c1` (stereo not drawn): the cell number change is -16.8%. Moreover, the AC50 under setting [1] is 0.58 µM [falling, single point].

With `O=C(NCc1ccc(F)cc1)c1ccc(CS(=O)Cc2ccccc2Cl)o1` (stereo not drawn), the cell number change was -16.2%. In addition, the AC50 under setting [1] was 4.11 µM [rising, single point].

With `O=C(CCc1nc2ccccc2c(=O)[nH]1)N1CCN(c2ccc(F)cc2)CC1`, the cell number change is 1.69%. Further, the concentration at half-maximal activity (AC50) under setting [2] was 1.16 µM [rising, single point].

With `COc1cc(C(=O)NC2CCCc3ccccc32)cc(OC)c1OC` (stereo not drawn), the cell number change was -34.1%. Further, under setting [2], the AC50 is 4.61 µM [falling, partial curve, poor fit]. The AC50 under setting [1] was 29.1 µM [rising, single point].

On to `CCCN1CCN(C2CCCCC2NS(=O)(=O)c2ccccc2)CC1` (stereo not drawn), for which the cell number change was 22.5%.

As for `CCOc1ccc2nc(C(C)O)[nH]c2c1` (stereo not drawn), the cell number change was 0.671%.

Turning to `Cc1ccc(C(C)C)c(OCC(=O)NN=C(CCl)CCl)c1`, the cell number change came out at 18.8%. The half-maximal activity concentration (AC50) under setting [2] is 3.66 µM [rising, partial curve]. Moreover, under setting [1], the concentration at half-maximal activity (AC50) is 1.16 µM [rising, partial curve, poor fit].

As for `Cc1ccc(/C(N)=N/OC(=O)c2ccc(Cl)cc2Cl)cc1`, the cell number change was found to be 13.7%.

On to `Cc1cccc(-n2c(O)c(C=Nc3ccccc3N)c(=O)[nH]c2=O)c1`, for which the cell number change is -1.9%. Further, the AC50 under setting [1] is 2.06 µM [rising, full curve].

For `OC1(c2ccc(F)cc2)CCN(Cc2cccnc2)CC1`, the cell number change stood at 14.4%.

Regarding `N/C(=N\OC(=O)c1ccoc1)c1ccc(Br)cc1`, the cell number change was 7.18%. Moreover, the AC50 under setting [1] was 35.5 µM [rising, single point].

Take `COc1ccc(-c2c(-c3ccccc3OC)sc3ccccc23)cc1`: the cell number change was determined as 22.7%. Moreover, the AC50 under setting [1] was 29.1 µM [rising, single point].

With `CSc1ccc(S(=O)(=O)NC(C)c2ccccc2)cc1` (stereo not drawn), the cell number change was found to be 135%. Under setting [2], the concentration at half-maximal activity (AC50) is 29.1 µM [rising, single point]. Under setting [1], the AC50 is 0.0058 µM [rising, full curve, poor fit].

For the molecule `COc1cc(/C=C2/SC(=S)N(Cc3ccccc3)C2=O)cc(Cl)c1O`, the cell number change is -97.2%. For the same molecule, the concentration at half-maximal activity (AC50) under setting [2] was 1.46 µM [falling, full curve]. Further, the concentration at half-maximal activity (AC50) under setting [1] is 9.2 µM [rising, partial curve].

`CCc1ccc(NC(=O)C2CCCN(S(=O)(=O)c3cccs3)C2)cc1` (stereo not drawn): the cell number change is -15.9%. Besides, the concentration at half-maximal activity (AC50) under setting [1] was 6.51 µM [rising, single point].

Consider `CCOc1ccc(C(=O)NCC(=O)OCC(=O)Nc2cccc(S(=O)(=O)N3CCCC3)c2)cc1`, for which the cell number change is -6.47%. In addition, the concentration at half-maximal activity (AC50) under setting [1] was 0.517 µM [falling, single point].

For `COc1ccc(-c2cc(C(=O)N3CCN(c4ccccc4F)CC3)c3ccccc3n2)c(OC)c1`, the AC50 under setting [1] is 7.31 µM [falling, partial curve].

For the molecule `O=C(Cc1ccc(S(=O)(=O)N2CCCCC2)s1)Nc1cccc2ccccc12`, the cell number change came to 0.161%.

As for `COc1cccc(-n2cc(C(=O)NC(C)C)c3ccccc3c2=O)c1`, the cell number change worked out at 7.04%.

Consider `COc1ccc(-n2nc3c(c2NC(=O)CCl)CSC3)cc1`, for which the cell number change was -22.2%. The concentration at half-maximal activity (AC50) under setting [1] was 8.2 µM [falling, partial curve].

As to `COc1cccc(CNC(=O)CCCc2nnc3n(C)c(=O)c4sccc4n23)c1`, the cell number change was found to be 15.8%. Also, under setting [2], the half-maximal activity concentration (AC50) is 0.58 µM [falling, full curve]. Moreover, the AC50 under setting [1] is 0.366 µM [falling, partial curve, poor fit].

For the molecule `Cc1nn(-c2ccc(C(=O)O)cc2)c(C)c1Cl`, the cell number change was determined as 8.86%. Under setting [1], the AC50 was 1.03 µM [falling, full curve].

As for `COC(=O)c1[nH]c2cccc(Cl)c2c1NC(=O)CN(C)C1CCCCC1`, the cell number change was -14.2%.

As for `COCc1cc(=O)n2[nH]cc(-c3ccsc3)c2n1`, the cell number change was determined as 24.3%. Further, the AC50 under setting [1] was 20.6 µM [rising, single point].

Regarding `CCOC(=O)/C(=C/c1c[nH]c2ccccc12)NC(C)=O`, the cell number change was -0.575%.

As for `COc1ccc(N2CCN(C3CCCN(S(=O)(=O)c4ccc(C)cc4C)C3)CC2)cc1` (stereo not drawn), the cell number change is -23.9%. Also, the AC50 under setting [1] was 4.61 µM [falling, full curve].

As to `COc1ccc(NC(=O)CNC(=O)Cc2ccccc2)cc1`, the cell number change is 11.7%. Moreover, the half-maximal activity concentration (AC50) under setting [1] is 11.6 µM [falling, single point].

As for `Cc1cc(C)cc(N(CC(=O)N2CCCCCC2)S(C)(=O)=O)c1`, the cell number change is -9.84%. Besides, under setting [1], the AC50 is 0.82 µM [rising, single point].

`O=C(CCNC(=O)c1ccccc1Cl)Nc1cc(C(F)(F)F)ccc1N1CCCC1`: the cell number change amounted to 35.1%. For the same molecule, the AC50 under setting [1] is 35.5 µM [falling, single point].

With `CC1(C)CC(N2CCN(c3ccccc3)CC2)=CC(=[N+]2CCCC2)C1`, the cell number change was -41.1%. Further, the AC50 under setting [2] was 18.4 µM [falling, partial curve, poor fit]. In addition, the AC50 under setting [1] is 23.1 µM [falling, single point].

With `CCOC(=O)c1c(S(=O)(=O)NCCCc2ccco2)c(C)n(C)c1C`, under setting [1], the AC50 was 10.3 µM [rising, partial curve].

As for `C=C1CCN([C@H](C(=O)NCc2ccc(OC)cc2)C(C)C)S(=O)(=O)c2ccccc21`, the cell number change was found to be 21%. The AC50 under setting [1] was 1.84 µM [rising, full curve, poor fit].

With `C=C(C)CNC(=S)N/N=C(\C)c1ccc(Cl)s1`, the cell number change was -50.4%. Besides, under setting [2], the AC50 was 20.6 µM [falling, partial curve]. Also, the AC50 under setting [1] is 16.4 µM [falling, partial curve].

As for `CC(=O)Nc1ccc2oc(-c3cc(F)c(F)cc3Cl)nc2c1`, the cell number change is -5.61%. Also, the AC50 under setting [1] is 0.651 µM [rising, single point].

For the molecule `Cc1cc(C(=O)COc2ccccc2C#N)c(C)n1C1CC1`, the cell number change turned out to be 3.62%. For the same molecule, the AC50 under setting [1] is 0.092 µM [rising, full curve, poor fit].

Take `CCC(C)c1ccc(NC(=O)CC(C)=O)cc1` (stereo not drawn): the cell number change was 1.75%. Moreover, the half-maximal activity concentration (AC50) under setting [1] is 18.4 µM [falling, partial curve].

`CC(C)CCOc1ccc(CO[C@@H]2[C@H]3OC(C)(C)O[C@H]3O[C@@H]2C(O)CO)cc1` (stereo partly drawn): the cell number change was -9.72%.

On to `CCn1c(=S)sc2c(=O)n(CC(=O)Nc3ccc(Cl)cc3)c(C)nc21`, for which the cell number change is -0.612%.

With `CN(CC(=O)Nc1cccc(F)c1)C(=O)CC1CCCCC1`, the cell number change amounted to 16.5%. For the same molecule, the AC50 under setting [2] is 4.11 µM [falling, single point].

With `CCCOC(=O)Nc1sc2c(c1C(=O)OCC)CCC2`, the cell number change was -29.2%. The AC50 under setting [1] was 1.64 µM [rising, partial curve, poor fit].

For `O=C(CSc1ncccn1)Nc1ccc2c(c1)CCC2`, the cell number change was 21.9%. Further, the half-maximal activity concentration (AC50) under setting [1] is 18.4 µM [rising, single point].

For the molecule `CCOc1ccc(CN(C)CC(=O)Nc2ccc([N+](=O)[O-])cc2Cl)cc1`, the cell number change was 1.51%. In addition, under setting [1], the AC50 was 2.59 µM [rising, single point].

Take `CCn1c(SCC(=O)Nc2ccc(C(C)=O)cc2)nc2nc3c(cc2c1=O)COC(C)(C)C3`: the cell number change was 44%. Under setting [2], the AC50 was 29.1 µM [rising, single point]. For the same molecule, under setting [1], the half-maximal activity concentration (AC50) is 29.1 µM [rising, single point].

In the case of `CCCOc1ccc(CSc2n[nH]c(C)n2)cc1`, the cell number change is 22.7%. The AC50 under setting [1] is 1.84 µM [rising, full curve, poor fit].

With `Cc1ccc(NC(=O)CSc2nc3nc(C)c(Br)cc3[nH]2)cc1F`, the cell number change amounted to 1.79%. The AC50 under setting [1] is 18.4 µM [falling, single point].

Regarding `O=C(CCS(=O)(=O)c1ccccc1)Nc1ccc(S(=O)(=O)Nc2ncccn2)cc1`, the cell number change amounted to 0.901%.

On to `COc1ccc(/C=C/c2nnc(NC(=O)COc3ccc(C)cc3)s2)cc1`, for which the cell number change is -0.15%. For the same molecule, the concentration at half-maximal activity (AC50) under setting [1] was 8.2 µM [rising, partial curve].

With `CCC(C)NC(=O)c1cc(C)no1` (stereo not drawn), the cell number change is -63%. For the same molecule, the concentration at half-maximal activity (AC50) under setting [2] is 29.1 µM [falling, single point].

Regarding `COc1ccc(Cl)cc1NCCC(O)c1ccc(F)cc1` (stereo not drawn), the cell number change was -26.9%. For the same molecule, the AC50 under setting [1] is 32.6 µM [falling, single point].

Turning to `O=C(CN1CCOCC1)N1CCCc2c1c(=O)oc1ccc(OCc3ccccc3)cc21`, the AC50 under setting [1] was 3.26 µM [rising, partial curve].

As for `Oc1ccc(/C=N/n2cnn(Cc3ccccc3Cl)c2=S)c(O)c1`, the cell number change is -9.9%. For the same molecule, the AC50 under setting [1] is 0.0366 µM [falling, full curve, poor fit].

On to `CC(=O)NCCNc1nc2c(-c3cccc(C)c3)nnn2c2ccccc12`, for which the cell number change was -22%. Further, the concentration at half-maximal activity (AC50) under setting [1] was 25.9 µM [falling, single point].

As to `CCCCn1c(N)c(NCCC(C)C)c(=O)[nH]c1=O`, the cell number change is 23.9%. Moreover, the AC50 under setting [1] is 18.4 µM [rising, single point].

For `CCc1cc(=O)oc2cc(C)cc(OC(C)C(=O)NCC(O)c3ccccc3)c12` (stereo not drawn), the cell number change is 24.5%. Also, the AC50 under setting [1] is 4.11 µM [rising, single point].

In the case of `CC12CCC(C(=O)N(NC(=O)c3cccnc3)C1=O)C2(C)C` (stereo not drawn), the cell number change was -2.22%. Further, under setting [1], the AC50 is 1.16 µM [falling, full curve, poor fit].

Consider `COc1ccc(NS(=O)(=O)c2cc(NC(=O)c3cccc(OCc4c(C)noc4C)c3)ccc2OC)cc1`, for which the cell number change is -1.31%. Further, under setting [1], the AC50 is 3.26 µM [rising, full curve].

Take `CN(CC(=O)Nc1ccc(S(=O)(=O)N2CCOCC2)cc1)Cc1ccc(F)cc1`: the cell number change was 3.25%. Also, the AC50 under setting [1] is 3.26 µM [falling, single point].

Take `Fc1ccc(NCc2cccnc2)cc1F`: the cell number change came out at 3.69%.

For `CCCCOc1ccc(C(=O)N/C(=C/C=C/c2ccccc2)C(=O)N2CCOCC2)cc1`, the cell number change was -54%. In addition, under setting [2], the AC50 is 29.1 µM [falling, single point]. For the same molecule, the AC50 under setting [1] is 2.06 µM [rising, partial curve, poor fit].

For the molecule `CCNC(=O)C(=O)Nc1ccc2c(c1)N(S(=O)(=O)c1cccs1)CCC2`, the cell number change stood at 56.9%. For the same molecule, the AC50 under setting [2] is 7.31 µM [rising, partial curve].

Regarding `c1ccc2c(c1)CCN(c1ncnc3c1[nH]c1ccccc13)C2`, the cell number change was -186%.

Consider `Cc1cc(C)n(-c2nc3sc4c(c3c3nnc(SCC(N)=O)n23)CC(C)(C)OC4)n1`, for which the AC50 under setting [1] was 20.6 µM [falling, single point].

Source of the values: PubChem BioAssay AID2685 (National Center for Advancing Translational Sciences (NCATS), 2010).
